According to patent publication US9328062B2, “Imide compound, method for manufacturing same, and use as insecticide” (Mitsui Chemicals Agro, Inc., priority 2012, dated 2016):
Some of these results come from one statement about several compounds together.

What was measured:
Spodoptera litura = assay: Insecticidal Test against Spodoptera litura; assay type: in vivo; conditions: concentration of 100 ppm; cabbage leaf immersed 30 seconds; 2-stage larvae; 25° C.; examined after 3 days
Plutella xylostella = assay: Insecticidal Test against Plutella xylostella; assay type: in vivo; conditions: concentration of 100 ppm; cabbage leaf immersed 30 seconds; 2-stage larvae; 25° C.; examined after 3 days

## CN(C(=O)c1ccccc1)c1cccc(C(=O)N(C(=O)c2cccc(N(C)C(=O)c3ccccc3)c2F)c2c(Br)cc(C(F)(C(F)(F)F)C(F)(F)C(F)(F)F)cc2Br)c1F (centres unmarked) [Compound No. 1361, N-[2-fluoro-3-[benzoyl(methyl)amino]benzoyl]-3-[benzoyl(methyl)amino]-N-[2,6-dibromo-4-(nonafluoro-2-butyl)phenyl]-2-fluorobenzamide]
Spodoptera litura
  insecticidal death rate: ≥ 70%
Plutella xylostella
  insecticidal death rate: ≥ 70%
